According to US20230257477A1:
Numbering of substitutions follows the chain as printed. These are yes or no findings as the source states them, for the method shown. Some results given as binding are weak or reduced against the parent protein; the word gives no strength.

By UniProt entry, the sequences of proteins in these tests, tags left out. Residues count along the entry.
UniProt P14209, residues 23-185: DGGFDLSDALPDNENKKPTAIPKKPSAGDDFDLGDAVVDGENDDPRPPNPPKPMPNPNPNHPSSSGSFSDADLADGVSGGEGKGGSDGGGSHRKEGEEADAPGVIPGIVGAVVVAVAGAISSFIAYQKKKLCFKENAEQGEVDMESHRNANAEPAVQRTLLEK

B1: 4C5E2 (antibody, V domains shown)
VH: EVQLEESGGGLVQPKGSLKLSCAASGFTFNTYAMYWVCQAPGKGLKWVARIRSKVNNYATYYADSVKDRFTISRDDSQNMLFLHMNNLKTEDTAIYFCVRDPMDYWGQGISVTVSS
VL: DIVMTQAAPSVPVTPGESVSISCGSSKSLLHSNGNTYLYWFLQRPGQSPQLLIYRVSNLASGVPDRFSGSGSGTAFTLRISRVEAEDVGVYYCMQHLEYPYTFGGGTRLEIK
B2: 4C5H10 (antibody, V domains shown)
VH: B1 VH with E5V
VL: B1 VL

Target: CD99 antigen (Origene, Sku #TP304058) (UniProt P14209)
Assay: ELISA on coated CD99 antigen (FIG. 4)

| Binder | binding |
| --- | --- |
| B1 | binds |
| B2 | binds |
